Test results published in the supplement of paper PMC12823440, “Inhibitors supercharge kinase turnover through native proteolytic circuits” (Nature, 2025).
Some of the results follow. The calls rarely recur for the same compound in another form.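 Kinases, fused to nanoluciferase, were expressed in K562 cells; luminescence was measured every 4 h from 2 to 18 h as percent of control (DMSO = 100%, positive control = 0%). A time point is decreased if signal falls significantly (2 sigma). Hits were called by the authors by a rule that is not shown; the count of time points alone does not decide it.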

Chains of the proteins cited; added tags and fusions are not shown.
UniProt P29317, whole entry: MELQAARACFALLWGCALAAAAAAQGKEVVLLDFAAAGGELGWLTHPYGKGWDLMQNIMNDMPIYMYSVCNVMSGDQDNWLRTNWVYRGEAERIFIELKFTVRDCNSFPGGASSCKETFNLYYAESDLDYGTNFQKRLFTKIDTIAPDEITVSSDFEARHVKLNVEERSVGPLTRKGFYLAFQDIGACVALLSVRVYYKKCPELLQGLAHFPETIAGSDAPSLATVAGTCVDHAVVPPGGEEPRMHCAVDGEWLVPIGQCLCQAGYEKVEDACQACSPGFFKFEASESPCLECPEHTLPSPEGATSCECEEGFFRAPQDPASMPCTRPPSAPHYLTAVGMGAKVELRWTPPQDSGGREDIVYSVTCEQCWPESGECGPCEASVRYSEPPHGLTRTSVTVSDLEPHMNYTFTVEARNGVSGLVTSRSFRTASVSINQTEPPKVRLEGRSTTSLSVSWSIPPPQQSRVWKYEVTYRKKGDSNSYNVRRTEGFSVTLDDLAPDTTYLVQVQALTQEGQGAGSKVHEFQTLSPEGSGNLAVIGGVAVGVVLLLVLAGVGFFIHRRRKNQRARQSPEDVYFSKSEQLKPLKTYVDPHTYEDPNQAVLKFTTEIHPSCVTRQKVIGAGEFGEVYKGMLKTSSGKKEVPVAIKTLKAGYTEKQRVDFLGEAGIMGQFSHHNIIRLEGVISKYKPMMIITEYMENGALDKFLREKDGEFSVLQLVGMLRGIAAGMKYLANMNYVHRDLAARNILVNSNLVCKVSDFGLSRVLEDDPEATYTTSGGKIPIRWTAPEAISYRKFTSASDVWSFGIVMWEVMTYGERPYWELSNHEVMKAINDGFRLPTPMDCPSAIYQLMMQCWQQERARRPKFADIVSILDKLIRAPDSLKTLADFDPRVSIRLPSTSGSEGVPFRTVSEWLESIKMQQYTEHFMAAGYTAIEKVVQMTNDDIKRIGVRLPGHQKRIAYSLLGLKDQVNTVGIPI
UniProt P21860, whole entry: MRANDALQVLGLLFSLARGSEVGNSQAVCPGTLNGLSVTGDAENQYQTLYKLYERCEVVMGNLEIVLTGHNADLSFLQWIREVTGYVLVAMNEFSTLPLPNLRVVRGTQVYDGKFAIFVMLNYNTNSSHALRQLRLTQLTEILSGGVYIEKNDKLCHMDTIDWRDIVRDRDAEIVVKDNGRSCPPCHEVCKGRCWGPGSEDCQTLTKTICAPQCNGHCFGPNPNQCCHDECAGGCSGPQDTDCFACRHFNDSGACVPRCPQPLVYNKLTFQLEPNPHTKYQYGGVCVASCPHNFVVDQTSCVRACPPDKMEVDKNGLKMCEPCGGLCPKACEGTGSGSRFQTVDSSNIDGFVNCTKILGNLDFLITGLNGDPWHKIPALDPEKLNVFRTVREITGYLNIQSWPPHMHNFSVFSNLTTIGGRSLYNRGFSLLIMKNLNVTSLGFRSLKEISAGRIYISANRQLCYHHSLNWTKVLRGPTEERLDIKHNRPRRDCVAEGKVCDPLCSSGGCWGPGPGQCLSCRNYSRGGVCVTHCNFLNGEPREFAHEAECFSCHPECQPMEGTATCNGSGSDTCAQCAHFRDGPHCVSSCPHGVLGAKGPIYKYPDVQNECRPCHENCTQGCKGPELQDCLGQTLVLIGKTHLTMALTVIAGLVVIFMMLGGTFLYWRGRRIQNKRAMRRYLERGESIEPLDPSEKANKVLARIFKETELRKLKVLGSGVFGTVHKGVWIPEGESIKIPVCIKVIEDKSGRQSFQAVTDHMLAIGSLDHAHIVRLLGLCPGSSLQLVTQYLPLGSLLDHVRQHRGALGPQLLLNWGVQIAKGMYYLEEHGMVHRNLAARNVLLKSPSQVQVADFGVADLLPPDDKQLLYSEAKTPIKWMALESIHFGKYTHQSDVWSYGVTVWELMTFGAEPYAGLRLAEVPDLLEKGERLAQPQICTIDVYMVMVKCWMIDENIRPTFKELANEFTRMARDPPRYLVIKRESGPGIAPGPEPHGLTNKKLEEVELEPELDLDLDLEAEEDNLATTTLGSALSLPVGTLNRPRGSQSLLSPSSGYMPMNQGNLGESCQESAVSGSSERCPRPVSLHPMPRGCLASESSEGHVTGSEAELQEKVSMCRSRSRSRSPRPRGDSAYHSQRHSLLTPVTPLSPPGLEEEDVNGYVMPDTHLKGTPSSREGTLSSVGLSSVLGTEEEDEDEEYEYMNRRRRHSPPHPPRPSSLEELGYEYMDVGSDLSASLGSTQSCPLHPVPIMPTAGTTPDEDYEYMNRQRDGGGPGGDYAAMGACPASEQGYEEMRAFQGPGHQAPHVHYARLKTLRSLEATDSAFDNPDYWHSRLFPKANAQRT
UniProt Q15303, whole entry R711C: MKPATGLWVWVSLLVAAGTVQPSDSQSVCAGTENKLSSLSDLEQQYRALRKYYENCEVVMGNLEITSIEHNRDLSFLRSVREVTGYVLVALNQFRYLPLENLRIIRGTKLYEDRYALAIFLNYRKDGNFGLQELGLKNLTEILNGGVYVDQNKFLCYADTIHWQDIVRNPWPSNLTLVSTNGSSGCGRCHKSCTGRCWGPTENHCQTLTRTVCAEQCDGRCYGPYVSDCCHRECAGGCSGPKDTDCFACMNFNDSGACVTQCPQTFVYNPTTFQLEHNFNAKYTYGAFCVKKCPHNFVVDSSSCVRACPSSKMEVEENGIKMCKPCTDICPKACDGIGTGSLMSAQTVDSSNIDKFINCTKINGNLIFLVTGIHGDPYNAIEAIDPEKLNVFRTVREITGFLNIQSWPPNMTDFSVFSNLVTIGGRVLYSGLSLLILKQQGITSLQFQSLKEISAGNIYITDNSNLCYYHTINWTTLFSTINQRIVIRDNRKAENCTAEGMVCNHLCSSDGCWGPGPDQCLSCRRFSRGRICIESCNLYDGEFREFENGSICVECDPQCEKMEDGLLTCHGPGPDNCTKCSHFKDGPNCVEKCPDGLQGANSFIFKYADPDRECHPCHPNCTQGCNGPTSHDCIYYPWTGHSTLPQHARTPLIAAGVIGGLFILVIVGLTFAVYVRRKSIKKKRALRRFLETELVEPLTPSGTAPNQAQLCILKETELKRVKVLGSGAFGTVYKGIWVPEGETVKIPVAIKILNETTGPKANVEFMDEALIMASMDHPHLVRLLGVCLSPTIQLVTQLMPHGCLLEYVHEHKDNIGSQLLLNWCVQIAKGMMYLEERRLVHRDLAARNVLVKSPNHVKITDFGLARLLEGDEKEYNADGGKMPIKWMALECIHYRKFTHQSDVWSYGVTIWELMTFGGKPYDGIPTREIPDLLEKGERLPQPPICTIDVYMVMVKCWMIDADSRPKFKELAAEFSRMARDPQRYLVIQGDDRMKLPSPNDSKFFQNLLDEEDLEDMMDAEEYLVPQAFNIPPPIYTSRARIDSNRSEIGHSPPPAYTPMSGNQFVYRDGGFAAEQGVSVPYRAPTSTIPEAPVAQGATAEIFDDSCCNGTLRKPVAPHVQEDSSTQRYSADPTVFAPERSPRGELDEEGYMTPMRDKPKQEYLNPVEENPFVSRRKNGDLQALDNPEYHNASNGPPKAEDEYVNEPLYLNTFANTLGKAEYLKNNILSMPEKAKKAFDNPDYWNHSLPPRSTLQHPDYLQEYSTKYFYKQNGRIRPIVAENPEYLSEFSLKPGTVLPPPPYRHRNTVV

What was measured:
Assay in all cases: kinase-Nluc reporter destabilization hit call (1 = scored as downregulated) (binary); higher = compound decreases kinase abundance
Conditions in all cases: K562; 2-18 h
[1] = biological target: EGFR (UniProt P00533)
[2] = biological target: EGFR_G719S (UniProt P00533)
[3] = biological target: EGFR_G719S_T790M (UniProt P00533)
[4] = biological target: EGFR_L718V (UniProt P00533)
[5] = biological target: EGFR_L858R (UniProt P00533)
[6] = biological target: EGFR_L861Q (UniProt P00533)
[7] = biological target: EGFR_T790M (UniProt P00533)
[8] = biological target: EPHA2 (UniProt P29317)
[9] = biological target: ERBB3 (UniProt P21860)
[10] = biological target: ERBB4_R711C (clone: ERBB4_mut) (UniProt Q15303)

Measured: kinase-Nluc reporter destabilization hit call

COc1ccc2c(c1)C[C@H](C(=O)Nc1ccc(-c3cn[nH]c3)cc1OCCN(C)C)CO2 [Chroman 1] (10 µM)
inactive: [1] 0 | [2] 0 | [3] 0 | [4] 0 | [5] 0 | [6] 0 | [7] 0 | [8] 0 | [9] 0 | [10] 0

N#Cc1c[nH]c2ccc(-c3ccc(-c4c(O)cccc4O)cc3)cc12 (10 µM)
inactive: [1] 0 | [2] 0 | [3] 0 | [4] 0 | [5] 0 | [6] 0 | [7] 0 | [8] 0 | [9] 0 | [10] 0

COc1ccc(-c2cnc3c(-c4cccc5ncccc45)cnn3c2)cc1 (10 µM)
inactive: [1] 0 | [2] 0 | [3] 0 | [4] 0 | [5] 0 | [6] 0 | [7] 0 | [8] 0 | [9] 0 | [10] 0

C=CC(=O)Nc1cccc(Oc2nc(Nc3ccc(N4CCN(C)CC4)cc3)nc3ccsc23)c1 [Olmutinib] (2.5 µM)
inactive: [1] 0 | [2] 0 | [3] 0 | [4] 0 | [5] 0 | [6] 0 | [7] 0 | [8] 0 | [9] 0 | [10] 0

Cc1ccc(CNC(=O)N2CCC[C@]3(CCN(Cc4ccc(Cl)c(Cl)c4)C3)C2)cc1 (10 µM)
inactive: [1] 0 | [2] 0 | [3] 0 | [4] 0 | [5] 0 | [6] 0 | [7] 0 | [8] 0 | [9] 0 | [10] 0

C=CC(=O)N1CCC[C@@H](n2c(=O)n(-c3ccc(Oc4ccccc4)cc3)c3c(N)nccc32)C1 [Tolebrutinib] (10 µM)
inactive: [1] 0 | [2] 0 | [3] 0 | [4] 0 | [5] 0 | [6] 0 | [7] 0 | [8] 0 | [9] 0 | [10] 0

COc1ccc(S(=O)(=O)N(CCO)c2ccccc2CN(C)CC=Cc2ccc(Cl)cc2)cc1 (2.5 µM)
inactive: [1] 0 | [2] 0 | [3] 0 | [4] 0 | [5] 0 | [6] 0 | [7] 0 | [8] 0 | [9] 0 | [10] 0

C[C@@H](N)COc1ccc(-c2cnc3ccc(N[C@H](C)c4cccc(F)c4)nn23)cc1 [Taletrectinib] (2.5 µM)
inactive: [1] 0 | [2] 0 | [3] 0 | [4] 0 | [5] 0 | [6] 0 | [7] 0 | [8] 0 | [9] 0 | [10] 0

CN(C)CCCNc1ccn2ncc(-c3ccc4c(c3)OCO4)c2n1 (10 µM)
inactive: [1] 0 | [2] 0 | [3] 0 | [4] 0 | [5] 0 | [6] 0 | [7] 0 | [8] 0 | [9] 0 | [10] 0

CS(=O)(=O)N1CCc2c(-c3cnc(N)nc3)nc(N3CCOCC3)nc21 (10 µM)
inactive: [1] 0 | [2] 0 | [3] 0 | [4] 0 | [5] 0 | [6] 0 | [7] 0 | [8] 0 | [9] 0 | [10] 0

CNC[C@@H](NC(=O)c1ccc(-c2nc([C@H]3CC[C@H](O)[C@@H](F)C3)cnc2N)cc1F)c1cc(F)cc(Br)c1 [Rineterkib] (10 µM)
inactive: [1] 0 | [2] 0 | [3] 0 | [4] 0 | [5] 0 | [6] 0 | [7] 0 | [8] 0 | [9] 0 | [10] 0

COC(=O)c1cc2c(OC(C)C)cc(OC(C)C)cc2[nH]1 (2.5 µM)
inactive: [1] 0 | [2] 0 | [3] 0 | [4] 0 | [5] 0 | [6] 0 | [7] 0 | [8] 0 | [9] 0 | [10] 0

O=C1c2cccc(O)c2C(=O)c2c(O)cccc21 [Danthron] (10 µM)
inactive: [1] 0 | [2] 0 | [3] 0 | [4] 0 | [5] 0 | [6] 0 | [7] 0 | [8] 0 | [9] 0 | [10] 0

CC(C)=CCC/C(C)=C/CC/C(C)=C/CSc1ccccc1C(=O)O [Salirasib] (10 µM)
inactive: [1] 0 | [2] 0 | [3] 0 | [4] 0 | [5] 0 | [6] 0 | [7] 0 | [8] 0 | [9] 0 | [10] 0

CCc1nc(C(N)=O)c(Nc2ccc(N3CCC(N4CCN(C)CC4)CC3)c(OC)c2)nc1NC1CCC(OC)CC1 (stereo not given) [EML4-ALK kinase inhibitor 1] (2.5 µM)
inactive: [1] 0 | [2] 0 | [3] 0 | [4] 0 | [5] 0 | [6] 0 | [7] 0 | [8] 0 | [9] 0 | [10] 0

C[C@@H](Nc1cc(F)cc(F)c1)c1cc(C(=O)N(C)C)cc2c(=O)cc(N3CCOCC3)oc12 (10 µM)
inactive: [1] 0 | [2] 0 | [3] 0 | [4] 0 | [5] 0 | [6] 0 | [7] 0 | [8] 0 | [9] 0 | [10] 0

COc1ccc(COc2cc3oc(=O)c4cc(C(C)O)ccc4c3cc2OC)cc1 (stereo not given) [Palomid 529] (2.5 µM)
inactive: [1] 0 | [2] 0 | [3] 0 | [4] 0 | [5] 0 | [6] 0 | [7] 0 | [8] 0 | [9] 0 | [10] 0

Cc1cccc(-c2[nH]c(C(C)(C)C)nc2-c2ccc3c(c2)OCO3)n1 (2.5 µM)
inactive: [1] 0 | [2] 0 | [3] 0 | [4] 0 | [5] 0 | [6] 0 | [7] 0 | [8] 0 | [9] 0 | [10] 0

COc1cc2nccc(Oc3ccc(NC(=O)Nc4ccc(F)cc4F)c(F)c3)c2cc1OC (10 µM)
inactive: [1] 0 | [2] 0 | [3] 0 | [4] 0 | [5] 0 | [6] 0 | [7] 0 | [8] 0 | [9] 0 | [10] 0

For convenience, seven of the compounds above.
C=CC(=O)N1CCC[C@@H](n2c(=O)n(-c3ccc(Oc4ccccc4)cc3)c3c(N)nccc32)C1 [Tolebrutinib] (10 µM)
inactive: [1] 0 | [2] 0 | [3] 0 | [4] 0 | [5] 0 | [6] 0 | [7] 0 | [8] 0 | [9] 0 | [10] 0

COc1ccc(S(=O)(=O)N(CCO)c2ccccc2CN(C)CC=Cc2ccc(Cl)cc2)cc1 (2.5 µM)
inactive: [1] 0 | [2] 0 | [3] 0 | [4] 0 | [5] 0 | [6] 0 | [7] 0 | [8] 0 | [9] 0 | [10] 0

C[C@@H](N)COc1ccc(-c2cnc3ccc(N[C@H](C)c4cccc(F)c4)nn23)cc1 [Taletrectinib] (2.5 µM)
inactive: [1] 0 | [2] 0 | [3] 0 | [4] 0 | [5] 0 | [6] 0 | [7] 0 | [8] 0 | [9] 0 | [10] 0

CN(C)CCCNc1ccn2ncc(-c3ccc4c(c3)OCO4)c2n1 (10 µM)
inactive: [1] 0 | [2] 0 | [3] 0 | [4] 0 | [5] 0 | [6] 0 | [7] 0 | [8] 0 | [9] 0 | [10] 0

CS(=O)(=O)N1CCc2c(-c3cnc(N)nc3)nc(N3CCOCC3)nc21 (10 µM)
inactive: [1] 0 | [2] 0 | [3] 0 | [4] 0 | [5] 0 | [6] 0 | [7] 0 | [8] 0 | [9] 0 | [10] 0

CNC[C@@H](NC(=O)c1ccc(-c2nc([C@H]3CC[C@H](O)[C@@H](F)C3)cnc2N)cc1F)c1cc(F)cc(Br)c1 [Rineterkib] (10 µM)
inactive: [1] 0 | [2] 0 | [3] 0 | [4] 0 | [5] 0 | [6] 0 | [7] 0 | [8] 0 | [9] 0 | [10] 0

COC(=O)c1cc2c(OC(C)C)cc(OC(C)C)cc2[nH]1 (2.5 µM)
inactive: [1] 0 | [2] 0 | [3] 0 | [4] 0 | [5] 0 | [6] 0 | [7] 0 | [8] 0 | [9] 0 | [10] 0

(cont.)

Cc1ccc(-n2c(-c3ccc(O)cc3O)n[nH]c2=O)cc1 (10 µM)
inactive: [1] 0 | [2] 0 | [3] 0 | [4] 0 | [5] 0 | [6] 0 | [7] 0 | [8] 0 | [9] 0 | [10] 0

O=S(=O)(c1cccc2c(Cl)cccc12)N1CCCNCC1 (10 µM)
inactive: [1] 0 | [2] 0 | [3] 0 | [4] 0 | [5] 0 | [6] 0 | [7] 0 | [8] 0 | [9] 0 | [10] 0

CN(C)C(=O)c1cc2cnc(Nc3ccc(NC(=O)C4(C(=O)Nc5ccc(F)cc5)CC4)cc3)nc2n1C1CCCC1 (2 µM)
inactive: [1] 0 | [2] 0 | [3] 0 | [4] 0 | [5] 0 | [6] 0 | [7] 0 | [8] 0 | [9] 0 | [10] 0

O=c1cc(-c2ccc(O)cc2)oc2cc(O)c(O)c(O)c12 [Scutellarein] (10 µM)
inactive: [1] 0 | [2] 0 | [3] 0 | [4] 0 | [5] 0 | [6] 0 | [7] 0 | [8] 0 | [9] 0 | [10] 0

O=C(CCc1ccc2n1[B-](F)(F)[N+]1=C(c3ccc[nH]3)C=CC1=C2)ON1C(=O)CCC1=O [Py-BODIPY-NHS ester] (2.5 µM)
inactive: [1] 0 | [2] 0 | [3] 0 | [4] 0 | [5] 0 | [6] 0 | [7] 0 | [8] 0 | [9] 0 | [10] 0

O=C(c1ccc(NS(=O)(=O)c2cccc3cccnc23)cc1)N1CCN(CC2CC2)CC1 [Mitapivat] (10 µM)
inactive: [1] 0 | [2] 0 | [3] 0 | [4] 0 | [5] 0 | [6] 0 | [7] 0 | [8] 0 | [9] 0 | [10] 0

Cc1cc(F)c(Nc2ncnc3cc(OCc4ccccc4)ccc23)cc1O (10 µM)
inactive: [1] 0 | [2] 0 | [3] 0 | [4] 0 | [5] 0 | [6] 0 | [7] 0 | [8] 0 | [9] 0 | [10] 0

CCC(=O)N1CC[C@H](Nc2ncnc3c2CN(c2cnc(OC)c(C(F)(F)F)c2)CC3)C1 [Leniolisib] (10 µM)
inactive: [1] 0 | [2] 0 | [3] 0 | [4] 0 | [5] 0 | [6] 0 | [7] 0 | [8] 0 | [9] 0 | [10] 0

C[C@@]12CCc3occc3[C@H]1CC[C@@]13C[C@@H](CC[C@H]12)[C@@](O)(CO)C3 [Cafestol] (10 µM)
inactive: [1] 0 | [2] 0 | [3] 0 | [4] 0 | [5] 0 | [6] 0 | [7] 0 | [8] 0 | [9] 0 | [10] 0
